The other results are listed elsewhere or left out.
Tests used:
Experiment in all cases: log2 fold change, soluble protein after heating vs DMSO (PISA); higher = thermal stabilisation; K562 cells, 10 uM, 30 min; active = over 0.2 and 3.5 SD of the protein, either way, in both replicates (recomputed)
saracatinib = compound: CN1CCN(CCOc2cc(OC3CCOCC3)c3c(Nc4c(Cl)ccc5c4OCO5)ncnc3c2)CC1 [saracatinib]
In short: (§1)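 Aliquots of K562 cells (2×10^6 cells/mL) treated with 10 μM compound for 30 min were heated for 3 min over 48°C-58°C. After pooling and extraction in PBS with 0.5% NP-40 at 4°C, soluble protein from a 21,000xg, 90 min spin was quantified by TMTpro 16plex LC-MS/MS with channel sums equalised. Thermal stability is expressed against control samples, from duplicates, as a log2 fold change.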

Sequences of proteins named here, by UniProt entry; tags and fusion partners are left off. A change or cut given only in a name is not applied to a line headed by its entry.
UniProt Q8NBQ5: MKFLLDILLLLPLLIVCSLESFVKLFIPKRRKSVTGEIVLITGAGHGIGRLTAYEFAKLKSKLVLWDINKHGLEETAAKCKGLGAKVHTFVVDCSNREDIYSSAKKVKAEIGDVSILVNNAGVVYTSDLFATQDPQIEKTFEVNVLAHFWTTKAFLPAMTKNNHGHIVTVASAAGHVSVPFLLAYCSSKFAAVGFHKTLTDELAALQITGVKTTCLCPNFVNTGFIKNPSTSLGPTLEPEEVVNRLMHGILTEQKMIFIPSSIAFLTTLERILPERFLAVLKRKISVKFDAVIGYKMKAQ
UniProt P49773: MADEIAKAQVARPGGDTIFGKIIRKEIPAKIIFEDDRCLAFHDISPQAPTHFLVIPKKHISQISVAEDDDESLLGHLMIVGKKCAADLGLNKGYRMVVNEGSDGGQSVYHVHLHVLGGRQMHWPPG
UniProt O43464: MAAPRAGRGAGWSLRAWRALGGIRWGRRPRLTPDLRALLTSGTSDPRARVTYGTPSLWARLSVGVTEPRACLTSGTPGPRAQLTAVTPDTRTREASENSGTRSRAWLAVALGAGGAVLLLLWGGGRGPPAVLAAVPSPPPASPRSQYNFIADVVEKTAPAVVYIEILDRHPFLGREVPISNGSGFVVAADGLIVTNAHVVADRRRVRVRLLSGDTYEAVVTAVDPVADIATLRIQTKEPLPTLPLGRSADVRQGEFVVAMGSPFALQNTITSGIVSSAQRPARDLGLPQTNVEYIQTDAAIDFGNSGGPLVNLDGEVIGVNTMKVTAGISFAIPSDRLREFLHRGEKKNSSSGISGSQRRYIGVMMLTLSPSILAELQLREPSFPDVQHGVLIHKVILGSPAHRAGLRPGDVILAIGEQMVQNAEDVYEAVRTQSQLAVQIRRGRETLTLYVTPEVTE
UniProt Q9NZL4: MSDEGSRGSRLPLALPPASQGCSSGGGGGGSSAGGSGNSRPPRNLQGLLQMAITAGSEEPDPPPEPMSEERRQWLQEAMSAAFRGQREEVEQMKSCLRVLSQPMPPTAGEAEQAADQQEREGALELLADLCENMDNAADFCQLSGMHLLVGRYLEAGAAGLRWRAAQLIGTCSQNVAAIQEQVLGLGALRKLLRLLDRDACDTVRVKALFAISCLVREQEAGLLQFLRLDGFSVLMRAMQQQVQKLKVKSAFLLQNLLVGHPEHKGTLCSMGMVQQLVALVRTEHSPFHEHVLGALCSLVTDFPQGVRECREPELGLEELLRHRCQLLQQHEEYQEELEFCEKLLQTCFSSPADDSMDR
UniProt P52272: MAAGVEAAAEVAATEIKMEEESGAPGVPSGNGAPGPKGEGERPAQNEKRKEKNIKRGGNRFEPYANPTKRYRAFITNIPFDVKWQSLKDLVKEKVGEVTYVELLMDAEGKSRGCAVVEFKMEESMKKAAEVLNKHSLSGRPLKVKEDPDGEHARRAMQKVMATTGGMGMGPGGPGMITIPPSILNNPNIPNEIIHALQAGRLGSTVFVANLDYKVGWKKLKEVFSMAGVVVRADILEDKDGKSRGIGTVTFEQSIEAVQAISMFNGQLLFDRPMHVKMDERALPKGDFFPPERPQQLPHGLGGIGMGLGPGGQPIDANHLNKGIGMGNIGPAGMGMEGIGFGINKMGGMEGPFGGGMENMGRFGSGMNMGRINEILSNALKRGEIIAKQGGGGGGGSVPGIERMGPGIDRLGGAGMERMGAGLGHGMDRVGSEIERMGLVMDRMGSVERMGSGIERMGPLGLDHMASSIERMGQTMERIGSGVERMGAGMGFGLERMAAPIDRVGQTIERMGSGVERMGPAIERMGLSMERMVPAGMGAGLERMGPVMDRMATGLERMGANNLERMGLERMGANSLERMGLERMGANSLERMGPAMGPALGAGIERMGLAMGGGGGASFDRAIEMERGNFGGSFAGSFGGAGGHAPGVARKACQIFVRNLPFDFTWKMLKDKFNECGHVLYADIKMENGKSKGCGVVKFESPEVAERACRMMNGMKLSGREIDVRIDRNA
UniProt Q01581: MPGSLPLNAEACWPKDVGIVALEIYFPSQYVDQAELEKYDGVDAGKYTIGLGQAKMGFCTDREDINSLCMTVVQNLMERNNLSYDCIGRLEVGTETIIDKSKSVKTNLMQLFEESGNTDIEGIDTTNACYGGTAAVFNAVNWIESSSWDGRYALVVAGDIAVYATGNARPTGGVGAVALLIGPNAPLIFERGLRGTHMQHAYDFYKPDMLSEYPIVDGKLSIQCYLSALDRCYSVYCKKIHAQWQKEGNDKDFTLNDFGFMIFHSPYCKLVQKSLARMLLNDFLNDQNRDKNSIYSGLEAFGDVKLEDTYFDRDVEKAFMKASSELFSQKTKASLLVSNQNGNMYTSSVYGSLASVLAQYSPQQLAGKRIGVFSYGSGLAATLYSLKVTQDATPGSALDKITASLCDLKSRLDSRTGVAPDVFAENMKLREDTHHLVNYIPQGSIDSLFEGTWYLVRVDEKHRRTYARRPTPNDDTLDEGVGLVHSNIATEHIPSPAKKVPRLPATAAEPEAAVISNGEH
UniProt Q99714: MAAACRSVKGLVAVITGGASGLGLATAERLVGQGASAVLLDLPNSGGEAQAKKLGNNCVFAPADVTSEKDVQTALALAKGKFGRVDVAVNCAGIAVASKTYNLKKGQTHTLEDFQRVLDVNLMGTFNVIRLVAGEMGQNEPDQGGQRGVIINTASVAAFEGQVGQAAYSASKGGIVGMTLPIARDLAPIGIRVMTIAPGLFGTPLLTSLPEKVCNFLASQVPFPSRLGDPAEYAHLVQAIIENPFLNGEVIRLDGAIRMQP
UniProt Q3SXM5: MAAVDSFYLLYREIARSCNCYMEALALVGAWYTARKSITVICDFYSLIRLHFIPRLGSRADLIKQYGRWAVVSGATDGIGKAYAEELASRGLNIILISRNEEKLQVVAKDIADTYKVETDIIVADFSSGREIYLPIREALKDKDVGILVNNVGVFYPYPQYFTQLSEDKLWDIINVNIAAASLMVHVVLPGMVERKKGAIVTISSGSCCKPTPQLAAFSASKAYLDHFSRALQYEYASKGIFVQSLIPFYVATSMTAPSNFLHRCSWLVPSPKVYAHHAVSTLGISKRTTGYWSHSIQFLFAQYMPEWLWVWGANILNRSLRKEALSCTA
UniProt P08238, whole entry, looked up: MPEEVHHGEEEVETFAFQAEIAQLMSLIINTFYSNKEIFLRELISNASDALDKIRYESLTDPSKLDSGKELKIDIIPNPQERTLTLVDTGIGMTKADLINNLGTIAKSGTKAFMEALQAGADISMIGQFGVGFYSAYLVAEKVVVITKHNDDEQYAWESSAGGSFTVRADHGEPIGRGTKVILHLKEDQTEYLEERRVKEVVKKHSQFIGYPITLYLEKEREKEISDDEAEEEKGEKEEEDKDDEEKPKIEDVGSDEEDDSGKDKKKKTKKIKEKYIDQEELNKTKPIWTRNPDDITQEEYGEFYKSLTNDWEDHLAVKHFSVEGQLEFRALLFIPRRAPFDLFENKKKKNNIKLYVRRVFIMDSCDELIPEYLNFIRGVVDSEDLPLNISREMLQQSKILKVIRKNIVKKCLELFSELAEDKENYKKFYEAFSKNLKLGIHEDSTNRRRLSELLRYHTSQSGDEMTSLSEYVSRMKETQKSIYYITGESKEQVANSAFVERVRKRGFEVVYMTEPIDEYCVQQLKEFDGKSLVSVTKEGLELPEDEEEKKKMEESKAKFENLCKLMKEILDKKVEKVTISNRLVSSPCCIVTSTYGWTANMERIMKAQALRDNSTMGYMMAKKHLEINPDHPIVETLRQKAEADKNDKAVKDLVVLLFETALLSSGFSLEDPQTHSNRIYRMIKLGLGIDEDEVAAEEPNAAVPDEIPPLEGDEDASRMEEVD
UniProt Q5T440: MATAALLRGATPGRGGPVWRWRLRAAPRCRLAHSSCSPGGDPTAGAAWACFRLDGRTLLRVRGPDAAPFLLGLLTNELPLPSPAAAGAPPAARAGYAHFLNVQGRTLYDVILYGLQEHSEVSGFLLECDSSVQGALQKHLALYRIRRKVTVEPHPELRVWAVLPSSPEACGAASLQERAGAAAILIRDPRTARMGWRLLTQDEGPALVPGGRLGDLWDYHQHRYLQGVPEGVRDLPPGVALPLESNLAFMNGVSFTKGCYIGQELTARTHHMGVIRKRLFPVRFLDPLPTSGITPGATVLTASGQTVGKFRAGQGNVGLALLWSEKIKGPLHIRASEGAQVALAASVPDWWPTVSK
UniProt P0DMV8, whole entry, looked up: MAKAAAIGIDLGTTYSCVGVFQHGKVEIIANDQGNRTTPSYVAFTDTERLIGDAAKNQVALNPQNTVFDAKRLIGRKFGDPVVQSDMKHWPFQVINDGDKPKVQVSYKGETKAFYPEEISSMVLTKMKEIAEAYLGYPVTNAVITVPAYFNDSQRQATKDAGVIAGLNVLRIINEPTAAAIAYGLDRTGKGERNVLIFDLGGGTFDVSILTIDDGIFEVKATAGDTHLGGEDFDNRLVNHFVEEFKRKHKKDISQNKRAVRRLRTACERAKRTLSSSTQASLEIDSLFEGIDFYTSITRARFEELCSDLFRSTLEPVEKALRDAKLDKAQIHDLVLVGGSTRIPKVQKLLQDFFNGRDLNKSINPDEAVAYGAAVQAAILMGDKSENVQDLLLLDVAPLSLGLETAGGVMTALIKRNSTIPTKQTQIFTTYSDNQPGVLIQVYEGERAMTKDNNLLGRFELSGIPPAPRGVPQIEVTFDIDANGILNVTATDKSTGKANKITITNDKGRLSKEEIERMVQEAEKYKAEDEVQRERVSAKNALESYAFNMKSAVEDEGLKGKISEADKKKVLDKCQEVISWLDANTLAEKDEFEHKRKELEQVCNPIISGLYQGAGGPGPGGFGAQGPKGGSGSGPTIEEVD
UniProt Q8TCT9: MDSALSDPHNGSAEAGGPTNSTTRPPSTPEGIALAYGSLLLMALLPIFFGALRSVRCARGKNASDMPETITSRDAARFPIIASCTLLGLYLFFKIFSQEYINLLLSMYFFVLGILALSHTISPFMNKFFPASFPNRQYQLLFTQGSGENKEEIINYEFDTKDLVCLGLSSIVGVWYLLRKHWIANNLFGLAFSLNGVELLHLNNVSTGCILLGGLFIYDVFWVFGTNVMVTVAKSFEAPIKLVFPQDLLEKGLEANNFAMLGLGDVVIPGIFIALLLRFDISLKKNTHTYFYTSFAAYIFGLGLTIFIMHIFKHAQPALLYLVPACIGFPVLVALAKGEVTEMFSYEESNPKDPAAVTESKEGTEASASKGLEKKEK
UniProt O95757: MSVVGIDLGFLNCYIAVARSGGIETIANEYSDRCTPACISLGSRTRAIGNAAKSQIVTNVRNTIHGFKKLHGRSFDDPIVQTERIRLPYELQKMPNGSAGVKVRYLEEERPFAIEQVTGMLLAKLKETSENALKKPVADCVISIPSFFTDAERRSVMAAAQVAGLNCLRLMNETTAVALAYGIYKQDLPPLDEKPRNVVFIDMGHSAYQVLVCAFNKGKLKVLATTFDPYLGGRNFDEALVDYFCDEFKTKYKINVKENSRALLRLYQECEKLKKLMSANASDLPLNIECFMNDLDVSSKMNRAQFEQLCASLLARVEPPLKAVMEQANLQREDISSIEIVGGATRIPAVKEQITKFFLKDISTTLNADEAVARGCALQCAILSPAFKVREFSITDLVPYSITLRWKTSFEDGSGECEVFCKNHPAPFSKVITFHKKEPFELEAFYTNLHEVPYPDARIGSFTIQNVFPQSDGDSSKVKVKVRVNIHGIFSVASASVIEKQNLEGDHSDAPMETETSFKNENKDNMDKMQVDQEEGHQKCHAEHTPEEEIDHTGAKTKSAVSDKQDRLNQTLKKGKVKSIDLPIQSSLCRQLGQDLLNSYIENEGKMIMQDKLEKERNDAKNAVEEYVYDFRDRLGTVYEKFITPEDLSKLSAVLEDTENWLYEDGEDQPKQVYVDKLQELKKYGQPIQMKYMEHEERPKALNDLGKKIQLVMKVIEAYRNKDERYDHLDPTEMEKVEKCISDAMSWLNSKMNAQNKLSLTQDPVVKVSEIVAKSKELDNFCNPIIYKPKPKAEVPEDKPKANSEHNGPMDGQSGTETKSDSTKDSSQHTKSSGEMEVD
UniProt O60921: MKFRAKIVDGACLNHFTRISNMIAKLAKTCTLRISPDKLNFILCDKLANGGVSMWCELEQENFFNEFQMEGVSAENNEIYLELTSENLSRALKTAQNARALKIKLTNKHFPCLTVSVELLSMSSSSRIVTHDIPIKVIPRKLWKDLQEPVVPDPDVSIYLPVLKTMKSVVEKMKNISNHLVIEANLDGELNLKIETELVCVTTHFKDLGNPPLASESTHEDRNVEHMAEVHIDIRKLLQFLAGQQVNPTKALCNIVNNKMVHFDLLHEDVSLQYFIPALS
UniProt Q14773: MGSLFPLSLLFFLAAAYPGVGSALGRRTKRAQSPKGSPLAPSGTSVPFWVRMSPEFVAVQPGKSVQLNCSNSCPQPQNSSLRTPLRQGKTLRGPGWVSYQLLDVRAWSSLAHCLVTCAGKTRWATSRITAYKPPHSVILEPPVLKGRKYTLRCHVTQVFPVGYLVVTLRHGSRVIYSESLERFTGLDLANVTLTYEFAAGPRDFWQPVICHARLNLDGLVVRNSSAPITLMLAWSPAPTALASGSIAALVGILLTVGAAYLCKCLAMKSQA

sotrastaurin = compound: CN1CCN(c2nc(C3=C(c4c[nH]c5ccccc45)C(=O)NC3=O)c3ccccc3n2)CC1 [sotrastaurin]
In short: as §1

alvocidib = compound: CN1CC[C@H](c2c(O)cc(O)c3c(=O)cc(-c4ccccc4Cl)oc23)[C@H](O)C1 [alvocidib]
In short: as §1

Tubastatin A = compound: CN1CCc2c(c3ccccc3n2Cc2ccc(C(=O)NO)cc2)C1 [Tubastatin A]
In short: as §1

[1] = compound: CNC(=O)C1=CC=CC=C1NC2=NC(=NC=C2Cl)NC3=C(C=C(C=C3)N4CCOCC4)OC
In short: as §1

defactinib = compound: CNC(=O)c1ccc(Nc2ncc(C(F)(F)F)c(NCc3nccnc3N(C)S(C)(=O)=O)n2)cc1 [defactinib]
In short: as §1

rucaparib = compound: CNCc1ccc(-c2[nH]c3cc(F)cc4c3c2CCNC4=O)cc1 [rucaparib]
In short: as §1

[2] = compound: CNc1nc(-c2ccc3c(N)n[nH]c3c2)cc(N2C[C@@H](C(=O)NC3CCCCC3)CC[C@H]2C)n1
In short: as §1

encorafenib = compound: COC(=O)N[C@@H](C)CNc1nccc(-c2cn(C(C)C)nc2-c2cc(Cl)cc(NS(C)(=O)=O)c2F)n1 [encorafenib]
In short: as §1

[3] = compound: COC(=O)[C@H](CCSC)NC(=O)C1=C(C=C(C=C1)NC[C@H](CS)N)C2=CC=CC=C2
In short: as §1

Measured: log2 fold change

HTATSF1 (UniProt O43719)
inactive: saracatinib -0.052 | sotrastaurin -0.172 | alvocidib -0.239 | Tubastatin A 0.112 | [1] 0.065 | defactinib -0.306 | rucaparib -0.126 | [2] -0.005 | encorafenib 0.037 | [3] 0

HSD17B11 (UniProt Q8NBQ5)
inactive: saracatinib 0.02 | sotrastaurin 0.022 | alvocidib -0.051 | Tubastatin A -0.002 | [1] 0.003 | defactinib 0.005 | rucaparib -0.073 | [2] 0.003 | encorafenib 0.01 | [3] -0.013

HMGA1 (UniProt P17096)
inactive: saracatinib -0.058 | sotrastaurin 0.065 | alvocidib 0.178 | Tubastatin A 0.003 | [1] -0.101 | defactinib 0.109 | rucaparib 0.136 | [2] 0.061 | encorafenib 0.032 | [3] 0.027

HMGN5 (UniProt Q5JSK9)
inactive: saracatinib -0.173 | sotrastaurin 0.092 | alvocidib -0.018 | Tubastatin A 0.024 | [1] -0.189 | defactinib 0 | rucaparib -0.07 | [2] -0.114 | encorafenib 0.065 | [3] 0.039

HK1 isoform 2 (UniProt P19367)
inactive: saracatinib -0.001 | sotrastaurin 0.005 | alvocidib -0.009 | Tubastatin A -0.032 | [1] -0.105 | defactinib -0.005 | rucaparib -0.032 | [2] -0.083 | encorafenib 0.004 | [3] 0.022

HYOU1, A0A494C039
inactive: saracatinib -0.034 | sotrastaurin -0.253 | alvocidib -0.097 | Tubastatin A -0.069 | [1] -0.067 | defactinib 0.074 | rucaparib 0.054 | [2] 0.006 | encorafenib 0.209 | [3] -0.159

Fetched one by one from above (two):
HSD17B11 (UniProt Q8NBQ5)
inactive: saracatinib 0.02 | sotrastaurin 0.022 | alvocidib -0.051 | Tubastatin A -0.002 | [1] 0.003 | defactinib 0.005 | rucaparib -0.073 | [2] 0.003 | encorafenib 0.01 | [3] -0.013

HYOU1, A0A494C039
inactive: saracatinib -0.034 | sotrastaurin -0.253 | alvocidib -0.097 | Tubastatin A -0.069 | [1] -0.067 | defactinib 0.074 | rucaparib 0.054 | [2] 0.006 | encorafenib 0.209 | [3] -0.159

Next entries

HINT1 (UniProt P49773)
inactive: saracatinib -0.053 | sotrastaurin -0.048 | alvocidib -0.025 | Tubastatin A -0.013 | [1] 0.046 | defactinib -0.008 | rucaparib 0.006 | [2] -0.085 | encorafenib -0.084 | [3] 0.101

HTRA2 (UniProt O43464)
inactive: saracatinib 0.039 | sotrastaurin -0.002 | alvocidib 0.022 | Tubastatin A 0.015 | [1] -0.018 | defactinib -0.027 | rucaparib -0.02 | [2] -0.028 | encorafenib 0 | [3] 0

HNRNPLL (UniProt Q8WVV9)
inactive: saracatinib -0.028 | sotrastaurin -0.286 | alvocidib -0.204 | Tubastatin A 0.187 | [1] -0.097 | defactinib -0.104 | rucaparib -0.01 | [2] -0.098 | encorafenib 0.224 | [3] -0.003

HINT2 (UniProt Q9BX68)
inactive: saracatinib -0.071 | sotrastaurin 0.016 | alvocidib -0.166 | Tubastatin A 0.048 | [1] 0.034 | defactinib 0.04 | rucaparib 0 | [2] -0.122 | encorafenib -0.088 | [3] 0.07

HSPBP1 isoform 3 (UniProt Q9NZL4)
inactive: saracatinib 0.001 | sotrastaurin -0.044 | alvocidib -0.036 | Tubastatin A -0.01 | [1] 0.073 | defactinib -0.092 | rucaparib 0.01 | [2] 0.02 | encorafenib 0.038 | [3] -0.042

HNRNPM (UniProt P52272)
inactive: saracatinib -0.045 | sotrastaurin -0.163 | alvocidib 0.043 | Tubastatin A 0.094 | [1] 0.043 | defactinib 0.067 | rucaparib 0.358 | [2] 0.015 | encorafenib 0.169 | [3] -0.01

HSPG2 (UniProt P98160)
inactive: saracatinib 0.012 | sotrastaurin 0.002 | alvocidib -0.044 | Tubastatin A -0.01 | [1] 0.02 | defactinib -0.016 | rucaparib -0.008 | [2] -0.085 | encorafenib 0.008 | [3] 0.016

HMGCS1 (UniProt Q01581)
inactive: saracatinib -0.016 | sotrastaurin 0.011 | alvocidib -0.017 | Tubastatin A -0.035 | [1] -0.052 | defactinib 0.002 | rucaparib 0.022 | [2] -0.061 | encorafenib -0.034 | [3] 0.033

HSD17B10 (UniProt Q99714)
inactive: saracatinib 0.081 | sotrastaurin -0.099 | alvocidib -0.094 | Tubastatin A -0.008 | [1] 0.032 | defactinib -0.037 | rucaparib -0.063 | [2] -0.011 | encorafenib 0.043 | [3] -0.029

HSDL1 (UniProt Q3SXM5)
inactive: saracatinib 0.01 | sotrastaurin 0.072 | alvocidib -0.059 | Tubastatin A -0.025 | [1] -0.02 | defactinib -0.013 | rucaparib 0.004 | [2] -0.001 | encorafenib -0.006 | [3] 0.014

HSP90AB1 (UniProt P08238)
inactive: saracatinib 0.013 | sotrastaurin -0.01 | alvocidib -0.075 | Tubastatin A -0.002 | [1] 0.045 | defactinib -0.029 | rucaparib -0.065 | [2] -0.001 | encorafenib 0.04 | [3] -0.003

HSPA5 (UniProt P11021)
inactive: saracatinib 0.025 | sotrastaurin 0.024 | alvocidib -0.014 | Tubastatin A -0.037 | [1] 0.013 | defactinib 0.003 | rucaparib -0.07 | [2] -0.012 | encorafenib 0.005 | [3] 0.038

HNRNPR isoform 2 (UniProt O43390)
inactive: saracatinib -0.012 | sotrastaurin 0.025 | alvocidib 0.106 | Tubastatin A 0.057 | [1] 0.035 | defactinib 0.142 | rucaparib 0.134 | [2] 0.029 | encorafenib 0.028 | [3] -0.002

HSPA9 (UniProt P38646)
inactive: saracatinib 0.031 | sotrastaurin 0.023 | alvocidib 0.009 | Tubastatin A -0.025 | [1] 0.054 | defactinib 0.014 | rucaparib -0.004 | [2] -0.044 | encorafenib -0.027 | [3] 0.037

IBA57 (UniProt Q5T440)
inactive: saracatinib 0.019 | sotrastaurin -0.001 | alvocidib -0.072 | Tubastatin A 0 | [1] 0.059 | defactinib -0.025 | rucaparib -0.021 | [2] -0.051 | encorafenib 0 | [3] 0.007

HSPA1A (UniProt P0DMV8)
inactive: saracatinib 0.049 | sotrastaurin 0.034 | alvocidib 0.015 | Tubastatin A -0.04 | [1] 0.019 | defactinib 0.011 | rucaparib -0.024 | [2] -0.036 | encorafenib -0.022 | [3] 0.041

HM13 isoform 2 (UniProt Q8TCT9)
inactive: saracatinib 0.069 | sotrastaurin 0.05 | alvocidib 0.008 | Tubastatin A 0.007 | [1] -0.018 | defactinib -0.002 | rucaparib -0.058 | [2] -0.011 | encorafenib 0 | [3] 0.008

HNRNPA0 (UniProt Q13151)
inactive: saracatinib -0.09 | sotrastaurin -0.042 | alvocidib 0.213 | Tubastatin A 0.155 | [1] -0.11 | defactinib 0.311 | rucaparib 0.146 | [2] 0.058 | encorafenib -0.045 | [3] 0.012

HSD17B4 (UniProt P51659)
inactive: saracatinib 0.004 | sotrastaurin 0.016 | alvocidib -0.047 | Tubastatin A -0.037 | [1] 0.059 | defactinib -0.002 | rucaparib -0.01 | [2] -0.02 | encorafenib -0.016 | [3] -0.002

HSPA4L (UniProt O95757)
inactive: saracatinib 0.044 | sotrastaurin 0.002 | alvocidib -0.048 | Tubastatin A -0.01 | [1] -0.004 | defactinib -0.029 | rucaparib -0.035 | [2] 0.001 | encorafenib 0.007 | [3] 0

HSPB11 (UniProt Q9Y547)
inactive: saracatinib 0.037 | sotrastaurin 0.026 | alvocidib -0.02 | Tubastatin A 0.145 | [1] 0.133 | defactinib -0.12 | rucaparib -0.016 | [2] 0.037 | encorafenib -0.057 | [3] 0.014

HUS1 (UniProt O60921)
inactive: saracatinib -0.005 | sotrastaurin 0.01 | alvocidib -0.032 | Tubastatin A -0.1 | [1] -0.029 | defactinib -0.044 | rucaparib 0 | [2] -0.011 | encorafenib 0.014 | [3] -0.044

ICAM4 (UniProt Q14773)
inactive: saracatinib -0.116 | sotrastaurin -0.042 | alvocidib -0.016 | Tubastatin A 0.101 | [1] -0.052 | defactinib -0.082 | rucaparib 0.037 | [2] -0.028 | encorafenib 0.037 | [3] -0.007

— the supplement of paper PMC10849652
